Here are results for 2 substances from article PMC3473020.

The chains behind the UniProt entries cited, without tags or fusion partners.
UniProt P99999: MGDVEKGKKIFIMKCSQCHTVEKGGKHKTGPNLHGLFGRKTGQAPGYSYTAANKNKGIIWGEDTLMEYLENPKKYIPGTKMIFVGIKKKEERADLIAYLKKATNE
UniProt P04792: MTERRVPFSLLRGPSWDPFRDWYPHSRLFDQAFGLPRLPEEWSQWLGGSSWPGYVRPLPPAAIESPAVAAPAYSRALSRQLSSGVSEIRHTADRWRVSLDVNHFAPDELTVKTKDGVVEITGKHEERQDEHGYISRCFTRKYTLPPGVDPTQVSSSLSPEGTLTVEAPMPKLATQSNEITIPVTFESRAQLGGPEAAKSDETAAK

The experiment concerns the target cytochrome c (human (endogenous in U2OS)) (UniProt P99999). Briefly: co-IP; cell lysate (50 mM HEPES pH 7.6, 150 mM NaCl, 5 mM EDTA, 0.1% NP-40) incubated with a cytochrome c antibody (1:100) at 4°C overnight, protein A-sepharose, western blot for Hsp27; cells with or without bufalin treatment.

These are yes or no findings as the source states them, for the method shown. Binding seen in cells or lysates may run through a third protein. Some binding calls cover weakened binding; strength is not graded here.

With “Hsp27 over-expressed from pCMV6-AC-Hsp27 (from UniProt P04792 1-205)”, the binding result is listed as “binds”.
In the case of “heat shock protein 27 (from UniProt P04792 1-205)” it was “binds”.
